From patent EP3815699A1, “NEW MEANS AND METHODS FOR THERAPY AND DIAGNOSIS OF […]” (Technische Universität München, priority 2019, dated 2021)
No constants are given. Whether binding was seen depends on the method and setting. For some assays here: In cells and extracts the contact can be indirect. Some results given as binding are weak or reduced against the parent protein; the word gives no strength.

By UniProt entry, the sequences of proteins in these tests, tags left out.
UniProt P29590: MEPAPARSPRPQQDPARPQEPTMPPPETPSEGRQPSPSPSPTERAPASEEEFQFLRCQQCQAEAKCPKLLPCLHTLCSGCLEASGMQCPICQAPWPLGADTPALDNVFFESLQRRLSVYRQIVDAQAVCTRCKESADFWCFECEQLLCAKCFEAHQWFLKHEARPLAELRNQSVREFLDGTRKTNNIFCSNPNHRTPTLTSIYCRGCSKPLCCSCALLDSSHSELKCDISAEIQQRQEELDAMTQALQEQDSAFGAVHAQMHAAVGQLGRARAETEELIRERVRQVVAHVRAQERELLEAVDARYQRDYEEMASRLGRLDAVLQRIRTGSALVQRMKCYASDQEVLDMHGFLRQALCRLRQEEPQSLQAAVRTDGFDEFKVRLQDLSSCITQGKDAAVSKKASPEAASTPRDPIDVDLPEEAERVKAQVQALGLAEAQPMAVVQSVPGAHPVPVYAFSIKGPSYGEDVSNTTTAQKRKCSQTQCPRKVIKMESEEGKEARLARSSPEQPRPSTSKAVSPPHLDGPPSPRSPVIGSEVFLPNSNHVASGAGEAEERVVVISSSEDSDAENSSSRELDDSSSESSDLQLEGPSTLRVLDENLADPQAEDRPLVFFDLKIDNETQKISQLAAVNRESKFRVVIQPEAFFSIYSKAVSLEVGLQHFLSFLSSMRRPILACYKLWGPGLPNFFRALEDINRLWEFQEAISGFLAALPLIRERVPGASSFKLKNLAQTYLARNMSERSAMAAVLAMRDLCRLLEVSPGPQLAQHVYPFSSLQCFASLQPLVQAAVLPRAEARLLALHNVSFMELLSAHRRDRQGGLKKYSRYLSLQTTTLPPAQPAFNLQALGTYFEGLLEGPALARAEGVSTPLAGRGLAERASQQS

Key:
[1] = molecular target: PML (endogenous, HepaRG cells) (UniProt P29590); assay: title of the legend of Figure 7, anti-PML immunoprecipitation
[2] = molecular target: PML (endogenous, HepaRG cells) (UniProt P29590); assay: anti-PML immunoprecipitation from HepaRG cells infected with HAdV wt, anti-E2A immunoblot
[3] = molecular target: PML (endogenous, HepaRG cells) (UniProt P29590); assay: anti-PML immunoprecipitation from transfected HepaRG cells, anti-E2A immunoblot
[4] = molecular target: PML (endogenous, HepaRG cells) (UniProt P29590); assay: anti-PML immunoprecipitation from HepaRG cells infected with the HAdV E4orf3 mutant, anti-E2A immunoblot
[5] = molecular target: PML (endogenous, HepaRG cells) (UniProt P29590); assay: biochemical analysis (co-immunoprecipitation, Example 9)

Measured: binding

E2A wt, untagged (pCMX3bE2A / pE2A-wt, or expressed from HAdV wt H5pg4100) (from UniProt P03265 1-529)
binds: all assays above
